From patent publication US11286281B2, “Homodetic cyclic peptides targeting alpha-4-beta-7 integrin” (priority 2017, dated 2022)
Where “and” joins values, the source holds several entries; their conditions need not be identical. Identical values can stand only once. At least one peptide structure holds a part that was inferred or is arguable (an end, a ring closure or a residue).

Chains of the proteins cited; added tags and fusions are not shown. Residues count along the entry.
UniProt P13612, 34-1032: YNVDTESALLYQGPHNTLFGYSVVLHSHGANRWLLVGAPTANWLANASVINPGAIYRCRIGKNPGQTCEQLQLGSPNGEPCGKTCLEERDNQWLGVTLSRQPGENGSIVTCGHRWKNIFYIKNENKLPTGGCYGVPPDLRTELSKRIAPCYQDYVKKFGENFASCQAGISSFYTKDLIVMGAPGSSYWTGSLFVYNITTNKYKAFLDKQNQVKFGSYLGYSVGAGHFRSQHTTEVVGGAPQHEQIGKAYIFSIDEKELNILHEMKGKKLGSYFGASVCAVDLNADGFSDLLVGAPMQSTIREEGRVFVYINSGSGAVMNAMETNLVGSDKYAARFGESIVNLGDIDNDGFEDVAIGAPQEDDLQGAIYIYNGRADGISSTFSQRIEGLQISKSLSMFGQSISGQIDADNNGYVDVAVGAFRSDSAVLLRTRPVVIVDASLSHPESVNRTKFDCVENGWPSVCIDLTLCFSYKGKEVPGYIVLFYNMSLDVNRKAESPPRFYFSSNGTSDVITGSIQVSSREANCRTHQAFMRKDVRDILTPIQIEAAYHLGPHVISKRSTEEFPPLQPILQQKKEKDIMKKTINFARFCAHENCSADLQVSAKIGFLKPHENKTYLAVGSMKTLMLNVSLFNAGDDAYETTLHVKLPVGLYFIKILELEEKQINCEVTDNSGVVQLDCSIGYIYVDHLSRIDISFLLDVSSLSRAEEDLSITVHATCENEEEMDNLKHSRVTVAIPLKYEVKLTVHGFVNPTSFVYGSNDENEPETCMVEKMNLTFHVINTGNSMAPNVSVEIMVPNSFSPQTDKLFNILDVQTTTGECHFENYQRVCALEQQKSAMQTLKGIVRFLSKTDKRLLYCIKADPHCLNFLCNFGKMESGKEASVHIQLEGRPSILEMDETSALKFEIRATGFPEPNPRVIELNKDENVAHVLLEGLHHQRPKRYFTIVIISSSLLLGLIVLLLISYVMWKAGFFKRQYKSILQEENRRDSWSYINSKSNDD

Target: integrin α4β1 (Homo sapiens, UniProt P05556+P13612)
Test: Integrin α4β1-VCAM human cell adhesion assay (RAMOS cells)
Assay type: cell-based
Set-up: host or cells: RAMOS human cells
Conditions: adhesion of RAMOS cells to VCAM-1 coated plates
Method: Integrin α4β1-VCAM Human Cell Adhesion Assay
RAMOS human cells (ATCC CRL-1596) were cultured in RPMI 1640 medium (HyClone SH30027.1) supplemented with 10% FBS (Seradigm) and 1% Penicillin-Streptomycin. A 96-well plate (Costar, 3603) was coated with 100 μl/well of recombinant human VCAM-1 Fc Chimera (R&D systems, 862-VC-100) solution at 0.25 μg/ml in coating buffer (50 mM sodium carbonate, pH 9.6). The plate was incubated overnight at 4° C. and washed twice with […] per well wash buffer (0.05% Tween 20 in PBS), blocked with 250 μl per well blocking buffer (1% non-fat dry milk in PBS), for 1 hour at room temperature. During blocking step, RAMOS cells were resuspended at 10 million cells/ml in PBS containing […] and incubated at 37° C. for 30 min in a 50 ml tube. PBS was added to fill the tube, cells were spun down and resuspended in RPMI 1640 medium to 2 million/mi. Compounds were diluted by serial dilution in binding buffer (1.5 mM CaCl2, 0.5 mM MnCl2, 50 mM Tris-HCl, pH 7.5) to a final volume of 50 μl per well at 2× concentration. […] After last wash, 100 μL of PBS was added to wells and the fluorescence was read (Ex495/Em515) using a plate reader (Tecan Infinite 1000). To calculate the dose response, the fluorescence value of control wells not containing cells was subtracted from each test well.

CC(C)C[C@@H]1NC(=O)c2ccc(-c3ccc(N4CCN(C(=O)c5ccccc5-c5ccccc5C(=O)N5CCN(c6ccc(-c7ccc8cc7CNC(=O)[C@@H]7CCCN7C(=O)[C@H](C)NC(=O)[C@H]([C@@H](C)O)NC(=O)[C@H](CC(=O)O)NC(=O)[C@H](CC(C)C)NC8=O)cc6)CC5)CC4)cc3)c(c2)CNC(=O)[C@@H]2CCCN2C(=O)[C@H](C)NC(=O)[C@H]([C@@H](C)O)NC(=O)[C@H](CC(=O)O)NC1=O [Compound 16]
IC50: ~21 nM and 21 nM
